# Measurements from patent US4760147A, “Optically active, substituted 1,4-dihydropyridines and their use as medicaments” (Cassella Aktiengesellschaft, priority 1984, dated 1988).
# Tested on: spiral strips of the arteria pulmonalis of guineapigs
# Test: calcium-antagonistic action: relaxing effect on potassium-depolarised, CaCl2-contracted spiral strips of the arteria pulmonalis (modified method of Godfraind and Kaba and of Schumann et al)
# Type: cell-based
# Settings: read-out: IC50 (concentration which inhibits the contraction by 50%)
# Procedure: In these experiments, spiral strips of the arteria pulmonalis of guineapigs are depolarised with 40 mmol of potassium, after equilibration in calcium-freeTyrode's solution. The addition of 0.5 mmol of CaCl2 then triggers off contraction. The relaxing effect of the test substance is determined by cumulative addition in 1/2 log 10 graduated concentrations. The concentration of the test substance which inhibits the contraction by 50% (=IC50, mole/l) is determined from the concentration/effect curve (abscissa: -log mole/l of test substance, ordinate: % inhibition of the maximum contraction, mean value of 4 to 6 vascular strips).
smiles,measurement,value
"COC(=O)C1=C(C)NC(C)=C(C(=O)OC)C1c1ccccc1[N+](=O)[O-] [nifedipine, methyl 1,4-dihydro-2,6-dimethyl-4-(2-nitrophenyl)-pyridine-3,5-dicarboxylate, reference compound]",IC50,3 nM
